# Test results taken from the supplement of paper PMC5949888.
# Most values lie at the floor of the assay. Slopes are relative: functional sequences can read slightly below zero.
# System: Saccharomyces cerevisiae PS128 hsf1 delta, HSF1(1-493) fusion
# Test: growth estimate (transactivation domain function in HSF1 fusion, heat-shock survival) (a.u. (slope of normalised read count over time)); higher = stronger growth at 37°C, i.e. more transactivation activity
# Conditions: library: random library
row,Substance,growth estimate
1,HER,< -0.25
2,TIRVTINL,< -0.25
3,SLLEEVIPEQ,< -0.25
4,LRDA,< -0.251
5,KSCLVLSGQCIWNAGDPLDS,< -0.25
6,SGNRHTCQAALNRIVVWPLF,< -0.25
7,WKGIHNGRGMPHWLGFTSRV,< -0.25
8,VRTCLST,< -0.25
9,WRVTTAPRKITSHSVSRYHP,< -0.25
10,LACTGPRQDTALTGVSITGR,< -0.25
11,ADLLSDGDTKSGRVAVRPDS,< -0.25
12,SPYGLSRKGLMSRVQEGHFT,< -0.25
13,VVGSVVANRHYSVSSHNNKR,< -0.25
14,QTTVL,< -0.25
15,NMQVTVL,< -0.25
16,TTETVDREFDYLPTVLYGPG,< -0.25
17,SQGFSKWAVRVSRLVGSVVF,< -0.25
18,RTVLIHGRCSPIAEAPRRWL,-0.242
19,LMGHERCPVWLGKLERTT,< -0.25
20,NLNEQQSMNGTLASCR,< -0.25
21,FNPRAVWGQPMLSILSLAVR,< -0.25
22,FRSIHSKSLEAAHRSSVGWP,-0.243
23,NNWPINTNLATVR,< -0.25

row,Substance,growth estimate
1,TTRSSPTQGG,< -0.25
2,GCT,< -0.25
3,VTTTDG,< -0.25
4,DGTS,< -0.25
5,SHLSSTRIVDGHLVHYR,< -0.25
6,YVCPTLN,< -0.25
7,NIAGALLAT,< -0.25
8,HEVL,< -0.25
9,VHRSSQPFIPAYDSSHNDQT,< -0.25
10,KMFSVMELEAGICAASHVHC,-0.2
11,KPLSNV,< -0.25
12,LRPDTARRMGTGRVTPELAG,< -0.25
13,LGQSRCCPIPVQRYYERATT,< -0.25
14,LVADHGTRSSGRQQQPHVSP,< -0.25
15,EQVRYPIRNLRQYMPN,< -0.25
16,LELWNGLSTLGLS,< -0.25
17,HPCYLYNSAIPVCSVMHHGC,< -0.25
18,CPRVRAKVMTSTRIDRVRVS,< -0.25
19,MLLLAW,< -0.25
20,LRGRCYCFTRYILQP,< -0.25
21,FPPGLIDVHVKRLYGWVTSR,< -0.25
22,GRIKL,< -0.25
23,RQPYYSSVFKAPWVCDVNNA,< -0.25

row,Substance,growth estimate
1,EVHRSL,< -0.25
2,AKLVFGYADDNVKPEH,-0.182
3,SFRCG,-0.241
4,TVYLPSLTRMLGGIDPLYIF,< -0.25
5,LPVI,< -0.25
6,NRMVLGWS,< -0.25
7,HRCARAARNSVLIGSPAS,< -0.25
8,LVRCVGPIGVPGSLLLPTT,< -0.25
9,NRRSRQGIYVWNRINHSAWE,< -0.25
10,IRGRLLSPTDTGVVEIK,< -0.25
11,RILAPKRWPS,< -0.25
12,HSQFLRRPPTITGCDVVGPT,< -0.25
13,LNAPVH,< -0.25
14,LRCISRLTLGLITSPSLGNG,< -0.25
15,ASMG,< -0.25
16,PRPGRRS,< -0.25
17,ETWGRQYVRLLLG,-0.186
18,RFLICTELDLRCRTSSSESQ,< -0.25
19,CSESREKISTVRRSWGSRWQ,< -0.25
20,EHVGNAG,< -0.25
21,HPPSRSLQPVIGGNTTSSVA,< -0.25
22,GVFAEAGPQGRPVTILLWSF,< -0.25
23,VILRERGLALHNAGME,< -0.25

row,Substance,growth estimate
1,KATHGLAM,< -0.25
2,NMTE,< -0.25
3,KPEGTFEQGKHLDEDSSAGS,< -0.25
4,KFRSCWQALWALRVGLH,< -0.25
5,SRFVQPSPSDPGSMSALIPV,< -0.25
6,TWLANRVH,< -0.25
7,PESRLMIERNWGGVKCPCWS,< -0.25
8,VRPNRPTPRERRSGVHGETS,< -0.25
9,ESERTSESCS,< -0.25
10,ARKSSYGPAQEVRYAVREAT,< -0.25
11,PVKTVVLHADK,< -0.25
12,RHSVRPTPSIEREPECPAPG,< -0.25
13,HKQADAGFGCTTTARLAEGV,< -0.25
14,CVWFGAPELGASHRQHRSQT,< -0.25
15,FGFEALGLDSLRVHNCSWNL,-0.201
16,LWVSLNIR,< -0.25
17,TMVHFRGP,< -0.25
18,QLEAR,< -0.25
19,MLCSCRGCKDQCVADVTSSE,< -0.25
20,GHSA,< -0.25
21,FGSVRINFKSGRCIQEGETS,< -0.25
22,PSVRLQLRGDGPMVNASRTP,< -0.25
23,RRKRFVLALSRVKRYSSASA,< -0.25

# Rewritten bar-delimited: part of the list above
row | Substance | growth estimate
15 | ASMG | < -0.25
16 | PRPGRRS | < -0.25
17 | ETWGRQYVRLLLG | -0.186
18 | RFLICTELDLRCRTSSSESQ | < -0.25
19 | CSESREKISTVRRSWGSRWQ | < -0.25
20 | EHVGNAG | < -0.25
21 | HPPSRSLQPVIGGNTTSSVA | < -0.25
22 | GVFAEAGPQGRPVTILLWSF | < -0.25
23 | VILRERGLALHNAGME | < -0.25
1 | KATHGLAM | < -0.25
2 | NMTE | < -0.25
3 | KPEGTFEQGKHLDEDSSAGS | < -0.25
4 | KFRSCWQALWALRVGLH | < -0.25
5 | SRFVQPSPSDPGSMSALIPV | < -0.25
6 | TWLANRVH | < -0.25
7 | PESRLMIERNWGGVKCPCWS | < -0.25
8 | VRPNRPTPRERRSGVHGETS | < -0.25
9 | ESERTSESCS | < -0.25
10 | ARKSSYGPAQEVRYAVREAT | < -0.25
11 | PVKTVVLHADK | < -0.25
12 | RHSVRPTPSIEREPECPAPG | < -0.25
13 | HKQADAGFGCTTTARLAEGV | < -0.25
14 | CVWFGAPELGASHRQHRSQT | < -0.25
15 | FGFEALGLDSLRVHNCSWNL | -0.201
16 | LWVSLNIR | < -0.25
17 | TMVHFRGP | < -0.25
18 | QLEAR | < -0.25
19 | MLCSCRGCKDQCVADVTSSE | < -0.25
20 | GHSA | < -0.25

# Additional entries:

row,Substance,growth estimate
1,AVILS,< -0.25
2,RDIGGMNSGWPPCVHILVGC,< -0.25
3,GLAVWA,< -0.25
4,SVSTGIFC,< -0.25
5,SSRTVDLRLQSCGFSQITPR,< -0.25
6,YHRVHQDVEADGP,-0.245
7,NFSCFGGEF,< -0.25
8,IWFTHPSVCILVNKIRFPVP,< -0.25
9,RQRSPRI,< -0.25
10,RDSGLPLVRRFCE,< -0.25
11,GSSKFDSLWGQVNASSMGWS,< -0.25
12,GSQRGSTRPGQLI,< -0.25
13,RHYPGSFQ,< -0.25
14,HQTPEVNERLLGTPLSTIGV,< -0.25
15,GGQK,< -0.25
16,RSTRYCIRSSPI,< -0.25
17,SRSAMARARRPTGAQREYAT,< -0.25
18,YRQPWFVVR,< -0.25
19,VSIMFTGGGLRGHNRYAASL,< -0.25
20,VNG,0.126
21,SGRS,< -0.25
22,SQKGYGQSLTRVLHSLEVTR,< -0.25
23,RFDRDGPFSVGRSAESARIS,< -0.25

row,Substance,growth estimate
1,TALWDWRSVGYTAGKQNPTV,< -0.25
2,ASTSTQWDRMRPSPEVQNVG,< -0.25
3,QRAVRTPGVEKLQTAQRVAG,< -0.25
4,ICHFMAVQNKVSMFDYAIKS,< -0.25
5,YSQGIRLAFIVRASRCPIAK,< -0.25
6,YYLGIQFQAVSRTVCNWRRQ,< -0.25
7,QRLDSRTSRN,< -0.25
8,RIYTPLSHLDRGVNALTRSG,< -0.25
9,DERHLYRITRGSNNRITVLI,< -0.25
10,ETSSWGRD,< -0.25
11,LDTKVAL,< -0.25
12,VGNQTQLR,< -0.25
13,AYRVKHKTTKCQRGTPLNGP,< -0.25
14,CSMLVDVVHGRTDRSSVI,< -0.25
15,VTKATTRITLCWTVAIPSTR,< -0.25
16,LCCCIAVPAAHRHEMPEN,< -0.25
17,APSAGELGNYLTLRSLS,< -0.25
18,FEFISRVGFMEDISSAYPFS,0.399
19,PELGLCGQVSTCPF,< -0.25
20,CLDA,< -0.25
21,ATSQRDRSPSVTAKSSEALW,< -0.25
22,FLSTCSPVAMLFRSRC,< -0.25
23,GSVE,< -0.25

row,Substance,growth estimate
1,STSRKKCNKGLGPPGR,< -0.25
2,PRICYRIMKVRGGNASRETQ,< -0.25
3,SIIRLIQCIIRATGVKLVHT,< -0.25
4,GSVT,< -0.25
5,PREIKIGLASRL,< -0.25
6,ASSG,< -0.25
7,FGRSLPEGSKAEFIEGQSSR,< -0.25
8,GRNFDPLGGPNTY,< -0.25
9,NVKLSIWVRITLTPFIRNIE,< -0.25
10,TCARNTCLETDGHTSVVGFL,< -0.25
11,NACLTPPSSR,< -0.25
12,GCSSLVWRGLP,< -0.25
13,HVNRGKQAGIITAVLAPVSH,< -0.25
14,LTSRRGLDPMGTGSCD,< -0.25
15,LIVGGHMETCASKRNVYVGC,< -0.25
16,NRRAAGYQEPLRR,< -0.25
17,GDVVRRSAIEG,< -0.25
18,SIDKACSAIQPTLVAGGLSL,< -0.25
19,QPMFAKAEYTELWGQQRPGA,< -0.25
20,RSRCSL,< -0.25
21,VGPRTACSPEPRLGAS,< -0.25
